Source: PubChem BioAssay AID1259425 (University of Nebraska Medical Center, 2018)
Here is one part, drawn at random, of about 14,000 reagents. A reagent listed more than once was tested more than once; the source does not tell the runs apart. No sequences are given here. Not given: the time to read-out.

Purpose: 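Find knockdowns that reproduce the gene expression pattern seen when KSR1 is lost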 (primary screen)
Cells: HCT116 human colon cancer cells
Reagent: siRNA pool against human genes, 50 nM siRNA
Measurement: 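After 50 nM siRNA pool, branched-DNA assay measures six marker transcripts per well, minus blank, normalised to the geometric mean of two housekeeping transcripts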
Scale: BNIP3L mRNA: higher = more BNIP3L transcript after knockdown; NDRG1 mRNA: higher = more NDRG1 transcript after knockdown; BNIP3 mRNA: higher = more BNIP3 transcript after knockdown; ALDOC mRNA: higher = more ALDOC transcript after knockdown; ACSL5 mRNA: higher = more ACSL5 transcript after knockdown

gene knocked down | BNIP3L mRNA, set 1 | NDRG1 mRNA, set 1 | BNIP3 mRNA, set 1 | ALDOC mRNA, set 1 | ACSL5 mRNA, set 1
GPHRB (golgi pH regulator B) | 0.158 | 0.222 | 0.29 | 0.0542 | 0.143
OR7A17 (olfactory receptor family 7 subfamily A member 17) | 0.188 | 0.337 | 0.367 | 0.0682 | 0.243
PAK5 (p21 (RAC1) activated kinase 5) | 0.131 | 0.0383 | 0.307 | 0.00427 | 0.0751
FKTN (fukutin) | 0.0718 | 0.114 | 0.204 | 0.0218 | 0.167
MEIS1 (Meis homeobox 1) | 0.131 | 0.156 | 0.258 | 0.0206 | 0.14
IGSF21 (immunoglobin superfamily member 21) | 0.21 | 0.288 | 0.434 | 0.0767 | 0.232
HIRIP3 (HIRA interacting protein 3) | 0.198 | 1.15 | 0.397 | 0.0173 | 0.499
PANK2 (pantothenate kinase 2) | 0.09 | 0.244 | 0.209 | 0.0312 | 0.151
THAP4 (THAP domain containing 4) | 0.085 | 0.0956 | 0.371 | 0.0188 | 0.25
MAPRE3 (microtubule associated protein RP/EB family member 3) | 0.0918 | 0.223 | 0.211 | 0.0392 | 0.0628
EXD3 (exonuclease 3'-5' domain containing 3) | 0.108 | 0.121 | 0.286 | 0.026 | 0.124
RNGTT (RNA guanylyltransferase and 5'-phosphatase) | 0.0975 | 0.261 | 0.262 | 0.0153 | 0.278
C6orf15 (chromosome 6 open reading frame 15) | 0.0379 | 0.162 | 0.278 | 0.0283 | 0.161
H2AZ1 (H2A.Z variant histone 1) | 0.117 | 0.188 | 0.123 | 0.0115 | 0.201
KRABD4 (KRAB domain containing 4) | 0.0755 | 0.314 | 0.543 | 0.0135 | 0.215
BTN3A3 (butyrophilin subfamily 3 member A3) | 0.387 | 0.24 | 0.309 | -0.0195 | 0.178
UGT1A10 (UDP glucuronosyltransferase family 1 member A10) | 0.13 | 0.0943 | 0.222 | 0.0315 | 0.13
PCDH17 (protocadherin 17) | 0.195 | 0.0947 | 0.274 | 0.0247 | 0.132
ZNF613 (zinc finger protein 613) | 0.0616 | 0.261 | 0.368 | 0.064 | 0.299
TUFM (Tu translation elongation factor, mitochondrial) | 0.0364 | 0.235 | 0.236 | 0.0237 | 0.247
ANKFY1 (ankyrin repeat and FYVE domain containing 1) | 0.142 | 0.962 | 0.369 | 0.0171 | 0.377
BAG1 (BAG cochaperone 1) | 0.221 | 0.268 | 0.508 | 0.0673 | 0.269
ATXN3 (ataxin 3) | 0.081 | 0.116 | 0.247 | 0.00777 | 0.111
ERV3-2 (endogenous retrovirus group 3 member 2) | 0.0505 | 0.098 | 0.103 | 0.0257 | 0.379
SCNN1B (sodium channel epithelial 1 subunit beta) | 0.214 | 0.18 | 0.284 | 0.0278 | 0.218
GPR119 (G protein-coupled receptor 119) | 0.168 | 0.325 | 0.644 | 0.0519 | 0.348
GPR119 (G protein-coupled receptor 119) | 0.139 | 0.25 | 0.323 | 0.0208 | 0.425
DDX47 (DEAD-box helicase 47) | 0.143 | 0.0821 | 0.293 | 0.0116 | 0.137
IFIT5 (interferon induced protein with tetratricopeptide repeats 5) | 0.0807 | 0.0826 | 0.276 | 0.0118 | 0.0888
RNASEH2A (ribonuclease H2 subunit A) | 0.0541 | 0.112 | 0.351 | 0.0486 | 0.122
HPGD (15-hydroxyprostaglandin dehydrogenase) | 0.183 | 0.342 | 0.495 | 0.0531 | 0.252
EAF2 (ELL associated factor 2) | 0.0768 | 0.1 | 0.245 | 0.0065 | 0.0552
RIPPLY3 (ripply transcriptional repressor 3) | 0.113 | 0.132 | 0.323 | 0.0225 | 0.15
DYNLL2 (dynein light chain LC8-type 2) | 0.0664 | 0.264 | 0.365 | 0.045 | 0.301
AMDHD2 (amidohydrolase domain containing 2) | 0.0944 | 0.147 | 0.22 | 0.0461 | 0.275

A run of entries taken from the entries so far, for reference:
gene knocked down | BNIP3L mRNA, set 1 | NDRG1 mRNA, set 1 | BNIP3 mRNA, set 1 | ALDOC mRNA, set 1 | ACSL5 mRNA, set 1
IGSF21 (immunoglobin superfamily member 21) | 0.21 | 0.288 | 0.434 | 0.0767 | 0.232
HIRIP3 (HIRA interacting protein 3) | 0.198 | 1.15 | 0.397 | 0.0173 | 0.499
PANK2 (pantothenate kinase 2) | 0.09 | 0.244 | 0.209 | 0.0312 | 0.151

The listing continues.
gene knocked down | BNIP3L mRNA, set 1 | NDRG1 mRNA, set 1 | BNIP3 mRNA, set 1 | ALDOC mRNA, set 1 | ACSL5 mRNA, set 1
SEC11A (SEC11 homolog A, signal peptidase complex subunit) | 0.248 | 0.274 | 0.548 | 0.0405 | 0.155
PSG7 (pregnancy specific beta-1-glycoprotein 7) | 0.191 | 0.144 | 0.244 | 0.0256 | 0.215
RAB20 (RAB20, member RAS oncogene family) | 0.129 | 0.118 | 0.335 | 0.0337 | 0.0932
KCNQ3 (potassium voltage-gated channel subfamily Q member 3) | 0.0684 | 0.101 | 0.241 | 0.0438 | 0.037
GAGE2E (G antigen 2E) | 0.148 | 0.466 | 0.314 | 0.0266 | 0.329
HSD17B11 (hydroxysteroid 17-beta dehydrogenase 11) | 0.49 | 0.461 | 0.522 | 0.0832 | 0.964
NGLY1 (N-glycanase 1) | 0.0435 | 0.0641 | 0.193 | 0.0117 | 0.146
CDKN2A (cyclin dependent kinase inhibitor 2A) | 0.0921 | 0.0977 | 0.166 | 0.0123 | 0.0637
SERPINA10 (serpin family A member 10) | 0.177 | 0.339 | 0.435 | 0.0928 | 0.34
LGALS3BP (galectin 3 binding protein) | 0.174 | 0.0568 | 0.194 | 0.0352 | 0.163
SLC22A6 | 0.192 | 0.181 | 0.219 | 0.0551 | 0.187
PLXNA2 (plexin A2) | 0.124 | 0.321 | 0.292 | 0.0179 | 0.187
SLC38A4 | 0.0904 | 0.255 | 0.289 | 0.0272 | 0.195
SLC5A6 | 0.109 | 0.203 | 0.332 | 0.0226 | 0.349
DIRAS3 (DIRAS family GTPase 3) | 0.122 | 0.0849 | 0.305 | 0.0272 | 0.0734
MS4A5 (membrane spanning 4-domains A5) | 0.169 | 0.201 | 0.2 | 0.0159 | 0.304
WNT5A (Wnt family member 5A) | 0.108 | 0.247 | 0.366 | 0.0385 | 0.107
KCNK9 (potassium two pore domain channel subfamily K member 9) | 0.0838 | 0.287 | 0.295 | 0.0147 | 0.15
GPM6B (glycoprotein M6B) | 0.0598 | 0.0739 | 0.213 | 0.0258 | 0.112
BCORL1 (BCL6 corepressor like 1) | 0.328 | 0.363 | 0.67 | 0.147 | 0.662
HAGHL (hydroxyacylglutathione hydrolase like) | 0.102 | 0.205 | 0.267 | 0.0168 | 0.127
NDUFA2 (NADH:ubiquinone oxidoreductase subunit A2) | 0.181 | 0.851 | 0.312 | 0.0195 | 0.172
LNX1 (ligand of numb-protein X 1) | 0.0366 | 0.0943 | 0.224 | 0.025 | 0.19
ELAPOR1 | 0.128 | 0.411 | 0.279 | 0.0355 | 0.398
RPL34 (ribosomal protein L34) | 0.27 | 0.363 | 0.325 | 0.0188 | 0.1
PGK2 (phosphoglycerate kinase 2) | 0.0706 | 0.122 | 0.236 | 0.00373 | 0.184
SLC25A2 | 0.194 | 0.251 | 0.327 | 0.0651 | 0.43
SCAND1 (SCAN domain containing 1) | 0.137 | 0.322 | 0.289 | 0.00863 | 0.261
